Laboratory results: patent US6426205
These are yes or no findings as the source states them, for the method shown. For some of these results: In cells and extracts the contact can be indirect. Some results given as binding are weak or reduced against the parent protein; the word gives no strength. For some of these results: Sequences can lack the tags named with a protein. One block for each binder: values may come before it.

Key:
[1] = target: T1, MYC-tagged Cdc53 (Saccharomyces cerevisiae) (UniProt Q12018); assay: deletion analysis by co-immunoprecipitation (discussion of Example 1)
T1 sequence: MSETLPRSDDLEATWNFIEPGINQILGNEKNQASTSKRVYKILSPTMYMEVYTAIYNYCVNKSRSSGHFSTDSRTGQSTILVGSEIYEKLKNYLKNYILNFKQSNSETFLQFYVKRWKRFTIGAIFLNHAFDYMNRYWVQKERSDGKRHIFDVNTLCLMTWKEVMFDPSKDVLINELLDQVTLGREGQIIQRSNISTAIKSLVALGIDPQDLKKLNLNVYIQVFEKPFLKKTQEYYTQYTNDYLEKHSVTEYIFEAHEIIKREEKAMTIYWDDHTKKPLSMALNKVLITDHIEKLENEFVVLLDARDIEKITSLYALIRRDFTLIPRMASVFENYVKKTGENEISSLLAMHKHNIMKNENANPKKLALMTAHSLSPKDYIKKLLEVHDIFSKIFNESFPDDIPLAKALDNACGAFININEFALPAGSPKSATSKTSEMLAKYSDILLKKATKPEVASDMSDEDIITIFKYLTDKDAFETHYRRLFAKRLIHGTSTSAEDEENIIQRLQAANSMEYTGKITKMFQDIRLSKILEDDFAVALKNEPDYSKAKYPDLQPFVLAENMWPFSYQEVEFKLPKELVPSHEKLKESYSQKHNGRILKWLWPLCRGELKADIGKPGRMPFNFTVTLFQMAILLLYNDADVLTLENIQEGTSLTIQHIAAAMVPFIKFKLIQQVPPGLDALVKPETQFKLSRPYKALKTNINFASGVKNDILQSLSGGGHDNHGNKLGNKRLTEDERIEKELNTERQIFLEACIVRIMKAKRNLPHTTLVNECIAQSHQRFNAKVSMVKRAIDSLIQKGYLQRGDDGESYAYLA

[2] = target: Skp1 (budding yeast); assay: anti-MYC immunoprecipitation from yeast lysate, immunoblot
[3] = target: Skp1 (budding yeast); assay: anti-HA immunoprecipitation from yeast lysate, immunoblot
[4] = target: Skp1 (budding yeast); assay: co-immunoprecipitation from yeast lysates (discussion of Example 1)
[5] = target: Gal4^AD-Skp1 isolates (budding yeast); assay: yeast two-hybrid screen of Gal4^AD genomic and cDNA libraries

binding [3]: binds
binding [4]: binds
B3: HA-tagged version of Grr1 (protein, not shown: small tags and cut ends)
chain: LQDLSRYSRQFINNVLSNPSNQNICTSVTRRSPVFALNMLPSEILHLILDKLNQKYDIVKFLTVSKLWAEIIVKILYYRPHINKKSQLDLFLRTMKLTSEETVFNYRLMIKRLNFSFVGDYMHDTELNYFVGCKNLERLTLVFCKHITSVPISAVLRGCKFLQSVDITGIRDVSDDVFDTLATYCPRVQGFYVPQARNVTFDSLRNFIVHSPMLKRIKITANNNMNDELVELLANKCPLLVEVDITLSPNVTDSSLLKLLTRLVQLREFRITHNTNITDNLFQELSKVVDDMPSLRLIDLSGCENITDKTIESIVNLAPKLRNVFLGKCSRITDASLFQLSKLGKNLQTVHFGHCFNITDNGVRALFHSCTRIQYVDFACCTNLTNRTLYELADLPKLKRIGLVKCTQMTDEGLLNMVSLRGRNDTLERVHLSYCSNLTIYPIYELLMSCPRLSHLSLTAVPSFLRPDITMYCRPAPSDFSENQRQIFCVFSGKGVHKLRHYLVNLTSPAFGPHVDVNDVLTKYIRSKNLIFNGETLEDALRRIITDLNQDSAAIIAATGLNQINGLNNDFLFQNINFERIDEVFSWYLNTFDGIRMSSEEVNSLLLQVNKTFCEDPFSDVDDDQDYVVAPGVNREINSEMCHIVRKFHELNDHIDDFEVNVASLVRVQFQFTGFLLHEMTQTYMQMIELNRQICLVQKTVQESGNIDYQKGLLIWRLLFIDKFIMVVQKYKLSTVVLRLYLKDNITLLTRQRELLIAHQRSAWNNNNDNDANRNANNIVNIVSDAGANDTSNNETNNGNDDNETENPNFWRQFGNRMQISPDQMRNLQMGLRNQNMVRNNNNNTIDESMPDTAIDSQMDEASGTPDEDML

binding [3]: binds
binding [4]: binds
B5: HA-tagged Met30 (protein, not shown: small tags and cut ends)
chain: RMMSFEDKDKDDLDNSNSNNSSEMTDTAMMPPLKRLLITGSSDDLAQGSSGKKKMTMATRSPSSSPDLATNDSGTRVQPLPEYNFTKFCYRHNPDIQFSPTHTACYKQDLKRTQEINANIAKLPLQEQSDIHHIISKYSNSNDKIRKLILDGILSTSCFPQLSYISSLVTHMIKIDFISILPQELSLKILSYLDCQSLCNATRVCRKWQKLADDDRVWYHMCEQHIDRKCPNCGWGLPLLHMKRARIQQNSTGSSSNADIQTQTTRPWKVIYRERFKVESNWRKGHCRIQEFKGHMDGVLTLQFNYRLLFTGSYDSTIGIWDLFTGKLIRRLSGHSDGVKTLYFDDRKLITGSLDKTIRVWNYITGECISTYRGHSDSVLSVDSYQKVIVSGSADKTVKVWHVESRTCYTLRGHTEWVNCVKLHPKSFSCFSCSDDTTIRMWDIRTNSCLKVFRGHVGQVQKIIPLTIKDVENLATDNTSDGSSPQDDPTMTDGADESDTPSNEQETVLDENIPYPTHLLSCGLDNTIKLWDVKTGKCIRTQFGHVEGVWDIAADNFRIISGSHDGSIKVWDLQSGKCMHTFNGRRLQRETQHTQTQSLGDKVAPIACVCIGDSECFSGDEFGCVKMYKFDLND

More lines, now with the values behind:

B1: Cdc34 (enzyme, budding yeast, UniProt P14682 1-295, looked up)
chain: MSSRKSTASSLLLRQYRELTDPKKAIPSFHIELEDDSNIFTWNIGVMVLNEDSIYHGGFFKAQMRFPEDFPFSPPQFRFTPAIYHPNVYRDGRLCISILHQSGDPMTDEPDAETWSPVQTVESVLISIVSLLEDPNINSPANVDAAVDYRKNPEQYKQRVKMEVERSKQDIPKGFIMPTSESAYISQSKLDEPESNKDMADNFWYDSDLDDDENGSVILQDDDYDDGNNHIPFEDDDVYNYNDNDDDDERIEFEDDDDDDDDSIDNDSVMDRKQPHKAEDESEDVEDVERVSKKI
binding [1]: binds

B2: Cdc53 with deletion of residues 448-748 (MYC-tagged) (protein, not shown: small tags and cut ends)
chain: MSETLPRSDDLEATWNFIEPGINQILGNEKNQASTSKRVYKILSPTMYMEVYTAIYNYCVNKSRSSGHFSTDSRTGQSTILVGSEIYEKLKNYLKNYILNFKQSNSETFLQFYVKRWKRFTIGAIFLNHAFDYMNRYWVQKERSDGKRHIFDVNTLCLMTWKEVMFDPSKDVLINELLDQVTLGREGQIIQRSNISTAIKSLVALGIDPQDLKKLNLNVYIQVFEKPFLKKTQEYYTQYTNDYLEKHSVTEYIFEAHEIIKREEKAMTIYWDDHTKKPLSMALNKVLITDHIEKLENEFVVLLDARDIEKITSLYALIRRDFTLIPRMASVFENYVKKTGENEISSLLAMHKHNIMKNENANPKKLALMTAHSLSPKDYIKKLLEVHDIFSKIFNESFPDDIPLAKALDNACGAFININEFALPAGSPKSATSKTSEMLAKYSDILLIFLEACIVRIMKAKRNLPHTTLVNECIAQSHQRFNAKVSMVKRAIDSLIQKGYLQRGDDGESYAYLA
binding [2]: binds

B4: Gal4^DBD-Cdc53^ΔK (protein, not shown: small tags and cut ends)
chain: MSETLPRSDDLEATWNFIEPGINQILGNEKNQASTSKRVYKILSPTMYMEVYTAIYNYCVNKSRSSGHFSTDSRTGQSTILVGSEIYEKLKNYLKNYILNFKQSNSETFLQFYVKRWKRFTIGAIFLNHAFDYMNRYWVQKERSDGKRHIFDVNTLCLMTWKEVMFDPSKDVLINELLDQVTLGREGQIIQRSNISTAIKSLVALGIDPQDLKKLNLNVYIQVFEKPFLKKTQEYYTQYTNDYLEKHSVTEYIFEAHEIIKREEKAMTIYWDDHTKKPLSMALNKVLITDHIEKLENEFVVLLDARDIEKITSLYALIRRDFTLIPRMASVFENYVKKTGENEISSLLAMHKHNIMKNENANPKKLALMTAHSLSPKDYIKKLLEVHDIFSKIFNESFPDDIPLAKALDNACGAFININEFALPAGSPKSATSKTSEMLAKYSDILLKKATKPEVASDMSDEDIITIFKYLTDKDAFETHYRRLFAKRLIHGTSTSAEDEENIIQRLQAANSMEYTGKITKMFQDIRLSKILEDDFAVALKNEPDYSKAKYPDLQPFVLAENMWPFSYQEVEFKLPKELVPFIKFKLIQQVPPGLDALVKPETQFKLSRPYKALKTNINFASGVKNDILQSLSGGGHDNHGNKLGNKRLTEDERIEKELNTERQIFLEACIVRIMKAKRNLPHTTLVNECIAQSHQRFNAKVSMVKRAIDSLIQKGYLQRGDDGESYAYLA
binding [5]: binds
